Assay results: patent US20260159583A1 (CHIA TAI TIANQING PHARMACEUTICAL GROUP, published 2026)
These are yes or no findings as the source states them, for the method shown. Some entries that bind do so weakly or less than the wild type.

Sequences of proteins named here, by UniProt entry; tags and fusion partners are left off. A change or cut given only in a name is not applied to a line headed by its entry.
UniProt Q9NZD1: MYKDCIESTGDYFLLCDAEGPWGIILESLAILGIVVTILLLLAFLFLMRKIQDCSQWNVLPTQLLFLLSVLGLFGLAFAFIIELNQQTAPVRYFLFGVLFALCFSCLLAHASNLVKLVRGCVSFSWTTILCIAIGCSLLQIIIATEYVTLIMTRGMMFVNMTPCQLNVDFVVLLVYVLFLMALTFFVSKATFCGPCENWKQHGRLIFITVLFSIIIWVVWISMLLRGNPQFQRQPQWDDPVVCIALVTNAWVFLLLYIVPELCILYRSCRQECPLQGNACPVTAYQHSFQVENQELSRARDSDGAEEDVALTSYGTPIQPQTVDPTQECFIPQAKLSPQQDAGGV

How the values were obtained:
human GPRC5D protein [1] = molecular target: T1, human GPRC5D protein (human, UniProt Q9NZD1 1-345); experiment: FACS on CHO-K1-hGPRC5D^hi cells, 4.1-3000 ng/mL
T1 construct: also called hGPRC5D

[2] = molecular target: full-length monkey GPRC5D (monkey (cyno)); experiment: FACS on CHO-K1-cynoGPRC5D cells, 4.6-10000 ng/ml
mouse GPRC5D (mouse) = molecular target: T2, mouse GPRC5D (mouse) (UniProt Q9JIL6); experiment: FACS on CHO-K1-murineGPRC5D cells, 4.6-10000 ng/ml
T2 sequence: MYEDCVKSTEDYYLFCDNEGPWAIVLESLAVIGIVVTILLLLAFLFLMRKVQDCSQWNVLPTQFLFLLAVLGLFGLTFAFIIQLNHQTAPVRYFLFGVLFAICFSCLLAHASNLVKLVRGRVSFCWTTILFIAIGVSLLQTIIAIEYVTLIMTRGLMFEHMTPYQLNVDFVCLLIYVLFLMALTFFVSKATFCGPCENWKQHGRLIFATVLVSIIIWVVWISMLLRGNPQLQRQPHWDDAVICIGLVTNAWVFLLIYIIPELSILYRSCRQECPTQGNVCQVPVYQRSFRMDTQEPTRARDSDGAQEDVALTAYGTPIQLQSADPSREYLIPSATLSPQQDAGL

human GPRC5D protein [3] = molecular target: T1, human GPRC5D protein; experiment: FACS on H929 and MM1S human myeloma cells, 4.1-1000 ng/ml
human GPRC5D protein [4] = molecular target: T1, human GPRC5D protein; experiment: FACS on CHO-K1-hGPRC5D^low cells, 4.1-3000 ng/mL; compared with BM-mAb

binding (human GPRC5D protein [1]): binds
binding [2]: binds
binding (mouse GPRC5D (mouse)): binds
binding (human GPRC5D protein [3]): binds
binding (human GPRC5D protein [4]): binds
B1: chimeric antibody Chi-128 (antibody, human IgG1, kappa, V domains shown)
VH: DVQLVESGGGLVQPGGSRKVSCAASGFTFSSFGMHWVRQAPEKGLEWVAYISRGSSTIYYADTVKGRFTISRDNPKNTLFLQMTSLRSEDTAMYYCARSGYGSSSYYFDYWGQGTTLTVSA
VL: ENVLTQSPAIMSASPREKVTMTCRASSSIRSSYLHWYQQKSGASPKLWIYSTSNLASGVPARFSGSGSGTSYSLTISSVEAEDAATYYCQQFSGYPLTFGGGTKLEIKR
